Results as given in article PMC8795421.
No constants are given. Whether binding was seen depends on the method and setting. Some binding calls cover weakened binding; strength is not graded here.

By UniProt entry, the sequences of proteins in these tests, tags left out. Residues count along the entry.
UniProt P48960, residues 24-540: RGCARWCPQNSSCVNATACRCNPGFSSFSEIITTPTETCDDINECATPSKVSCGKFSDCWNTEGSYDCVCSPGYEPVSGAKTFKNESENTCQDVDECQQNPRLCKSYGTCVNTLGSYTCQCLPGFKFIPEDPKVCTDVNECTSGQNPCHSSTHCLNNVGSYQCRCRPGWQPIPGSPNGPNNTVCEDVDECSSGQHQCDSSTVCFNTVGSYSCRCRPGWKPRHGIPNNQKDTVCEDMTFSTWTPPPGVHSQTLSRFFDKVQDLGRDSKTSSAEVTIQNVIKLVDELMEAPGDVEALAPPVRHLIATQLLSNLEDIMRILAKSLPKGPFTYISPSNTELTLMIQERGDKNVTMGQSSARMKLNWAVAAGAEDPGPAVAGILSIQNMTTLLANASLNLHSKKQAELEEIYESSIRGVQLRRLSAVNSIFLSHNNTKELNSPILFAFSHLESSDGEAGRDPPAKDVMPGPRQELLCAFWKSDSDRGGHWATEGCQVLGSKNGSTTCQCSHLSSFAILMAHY
UniProt P08174, residues 35-353: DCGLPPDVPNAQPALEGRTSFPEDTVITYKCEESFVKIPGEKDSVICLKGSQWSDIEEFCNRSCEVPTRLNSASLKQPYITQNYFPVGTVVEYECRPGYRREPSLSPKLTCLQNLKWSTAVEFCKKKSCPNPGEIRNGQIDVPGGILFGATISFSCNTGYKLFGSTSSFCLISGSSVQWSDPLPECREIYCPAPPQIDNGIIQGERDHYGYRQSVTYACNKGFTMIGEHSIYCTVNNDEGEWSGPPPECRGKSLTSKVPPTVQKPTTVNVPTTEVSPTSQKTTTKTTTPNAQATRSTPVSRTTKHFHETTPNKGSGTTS

Target: Biotinylated recombinant CD97, N-terminal extracellular domain (residues 24-540) with Fc domain and avidin tag (human) (UniProt P48960)
Assay: BLI; Octet RED384; biotinylated recombinant CD97 immobilised on streptavidin biosensors; 6.25 nM to 100 nM human DAF-Fc in solution; PBS with 0.1% BSA kinetic buffer; global fit (1:1); both purified

binding: binds
Substance: DAF-Fc (decay accelerating factor, DAF/CD55, fused to the human IgG1 Fc region) (from UniProt P08174 35-353) (Fc fusion)
